Results: the supplement of paper PMC3334620
Over roughly 33,000 sequences, “E-score (-0.5 to 0.5)” has its median near -0.0034; the highest 2% begin near 0.25. The list shows a part of the results.

Molecular target: T1, Yap3 (UniProt P38749)
T1 sequence: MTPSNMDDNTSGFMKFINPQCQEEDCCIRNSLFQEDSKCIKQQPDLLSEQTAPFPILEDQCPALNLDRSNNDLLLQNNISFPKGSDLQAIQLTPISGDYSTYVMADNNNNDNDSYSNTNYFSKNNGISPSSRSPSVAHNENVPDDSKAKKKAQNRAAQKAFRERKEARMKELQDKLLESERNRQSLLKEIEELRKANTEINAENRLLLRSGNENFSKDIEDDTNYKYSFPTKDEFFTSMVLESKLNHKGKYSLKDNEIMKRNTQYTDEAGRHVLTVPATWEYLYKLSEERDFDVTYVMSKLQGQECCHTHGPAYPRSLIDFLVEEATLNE
Experiment: PBM E-score (8-mer binding enrichment) (E-score (-0.5 to 0.5)); higher = stronger / more preferred TF binding
Conditions: protein concentration: 100 nM; construct: GST-full length
Experimental: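 Universal 'all 10-mer' protein binding microarrays (Agilent AMADID 015681) probed with GST-tagged S. cerevisiae TFs (full-length or DBD) made by in vitro transcription/translation (PURExpress), about 100-200 nM. Bound TF was detected with fluorescent anti-GST. Each ungapped 8-mer (which stands for itself and its reverse complement) is scored by the PBM enrichment score (E-score), a modified Wilcoxon-Mann-Whitney statistic from -0.5 to +0.5, computed with the Universal PBM Analysis Suite. Scale: above 0.35 generally sequence-specific binding.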

Compared with GCCCTACA, ACTTAGAC is higher in “PBM E-score” value: 0.0829 for the first, 0.117 for the second.

Going from ATAAAGAT to GGAGAGAC, the “PBM E-score” value falls from 0.198 to -0.0142.

First: ATTCCGAA
Second: CCCTATCG
The “PBM E-score” value of the first is higher: 0.195 for the first, -0.164 for the second.

Compared with ATGGGAAC, GCATCTAA is higher in “PBM E-score” value: 0.12 for the first, 0.186 for the second.

Compared with TCTAGCAA, CGTCCTTC is lower in “PBM E-score” value: 0.0794 for the first, 0.0406 for the second.

Compared with CGTATAGA, AGAAAGGC is lower in “PBM E-score” value: -0.00979 for the first, -0.0495 for the second.

First: CACGGAAC
Second: ACTTAGTC
The “PBM E-score” value of the first is higher: 0.061 for the first, 0.0573 for the second.

Going from AAAGTACA to GAGTGTTA, the “PBM E-score” value falls from 0.27 to 0.0924.

Going from ACTTTGAT to AATGGTAC, the “PBM E-score” value rises from 0.0469 to 0.13.

Going from AAAAATAG to GGTGCTGA, the “PBM E-score” value falls from 0.225 to -0.314.

Going from AGCCGTCC to ACATCCAC, the “PBM E-score” value rises from -0.0121 to -0.00353.

First: AGCTCCTA
Second: CTATGCGC
The “PBM E-score” value of the first is lower: -0.26 for the first, 0.0709 for the second.

First: GCTTTTCC
Second: CAACCTTC
The “PBM E-score” value of the first is higher: -0.0257 for the first, -0.049 for the second.

Compared with AGTAAGCA, GAGCATCA is lower in “PBM E-score” value: 0.00993 for the first, -0.0444 for the second.

First: TCTGATCA
Second: GAGGGCTA
The “PBM E-score” value of the first is higher: 0.0734 for the first, -0.0978 for the second.

Going from TCTCGCAA to CGGCGCGA, the “PBM E-score” value rises from 0.0895 to 0.127.

Going from ACCCGATA to AGCCCACT, the “PBM E-score” value falls from 0.0312 to -0.136.

First: CATCCAGA
Second: ACTAGCAA
The “PBM E-score” value of the first is lower: -0.101 for the first, 0.0373 for the second.

Compared with CCACACAA, CGTGGTGA is lower in “PBM E-score” value: 0.0602 for the first, -0.221 for the second.

Going from AGCCCCCT to GTCGTAGA, the “PBM E-score” value rises from -0.312 to -0.00497.

First: CTTGTAGC
Second: ACGCGGAC
The “PBM E-score” value of the first is higher: -0.0131 for the first, -0.0572 for the second.

First: GCTGGTAC
Second: CCACGCCA
The “PBM E-score” value of the first is lower: -0.184 for the first, -0.043 for the second.

Going from GGCACTAA to CCGGGTCG, the “PBM E-score” value falls from 0.107 to -0.157.

First: CGGCAAGA
Second: ACGGTGCT
The “PBM E-score” value of the first is higher: 0.0482 for the first, -0.039 for the second.

First: GGCATCCC
Second: GGCTCAGA
The “PBM E-score” value of the first is lower: -0.214 for the first, -0.112 for the second.

Compared with CGACGCGA, AGGATGAT is higher in “PBM E-score” value: -0.0795 for the first, 0.151 for the second.

First: ACCGGATG
Second: CTCAACTC
The “PBM E-score” value of the first is lower: -0.0805 for the first, 0.099 for the second.

Compared with CCGGTCAC, AGAAACTC is higher in “PBM E-score” value: -0.153 for the first, 0.0111 for the second.

Going from CCAACGGA to ACCGCGTA, the “PBM E-score” value rises from -0.191 to 0.128.

First: AGCGCACT
Second: ACCATCGG
The “PBM E-score” value of the first is higher: -0.0349 for the first, -0.221 for the second.

Going from AACGATCT to ATACAGGA, the “PBM E-score” value rises from 0.0807 to 0.166.

Compared with GCTACTCA, ACAAGTGA is higher in “PBM E-score” value: -0.0832 for the first, 0.0221 for the second.

Compared with CGAAGTGA, GACACCCC is lower in “PBM E-score” value: 0.0166 for the first, -0.274 for the second.

Going from AGGACAGC to CACTAACC, the “PBM E-score” value falls from 0.00569 to -0.0243.

Going from AGCGCGCC to GCGTACTA, the “PBM E-score” value falls from 0.00552 to -0.00541.

First: AAGACGAT
Second: ATGAGCAA
The “PBM E-score” value of the first is higher: 0.115 for the first, 0.113 for the second.

Compared with GCTCCGCC, AGTCTACC is lower in “PBM E-score” value: -0.13 for the first, -0.238 for the second.

Compared with ACTGTTAG, AGGGACCA is lower in “PBM E-score” value: -0.0667 for the first, -0.125 for the second.

Compared with AGAAACAT, GCATAGAC is lower in “PBM E-score” value: 0.209 for the first, -0.112 for the second.

Going from GCACGAGC to ACGTTCGG, the “PBM E-score” value falls from -0.166 to -0.178.

First: AAATCGAA
Second: GATGGTTA
The “PBM E-score” value of the first is higher: 0.201 for the first, 0.0784 for the second.

First: CAGACAAG
Second: CAGGCCAG
The “PBM E-score” value of the first is higher: 0.0339 for the first, -0.211 for the second.

Compared with CCAGGAGG, AGGTTGCA is higher in “PBM E-score” value: -0.19 for the first, 0.2 for the second.

Going from ATCCGAGG to CAACAGAA, the “PBM E-score” value rises from -0.14 to -0.0742.

Going from ATTAGAAG to TCCCCCGA, the “PBM E-score” value falls from 0.0855 to -0.278.

Compared with CATGTCAC, ATACTGAG is higher in “PBM E-score” value: 0.0317 for the first, 0.142 for the second.

First: AATCGATG
Second: AAAGGTAC
The “PBM E-score” value of the first is higher: 0.162 for the first, -0.00041 for the second.

First: ATGCGAAG
Second: CCAAAATA
The “PBM E-score” value of the first is lower: 0.0633 for the first, 0.211 for the second.

First: TGCCCCAA
Second: CGTAGACA
The “PBM E-score” value of the first is higher: 0.00554 for the first, -0.149 for the second.

First: GAGGTTAC
Second: CGCCGAGC
The “PBM E-score” value of the first is lower: 0.0463 for the first, 0.0512 for the second.

Going from CCTTGTGC to GAAAATAC, the “PBM E-score” value rises from -0.158 to 0.0884.

Going from CAAAGAGC to GGAGCCCC, the “PBM E-score” value falls from 0.0482 to -0.272.

First: CTTTTCAA
Second: ATTCAGCA
The “PBM E-score” value of the first is higher: 0.0821 for the first, 0.076 for the second.

First: GGCGCCCA
Second: CTGGTGGA
The “PBM E-score” value of the first is lower: -0.134 for the first, -0.126 for the second.

Going from AAATCATG to CCGTAAAG, the “PBM E-score” value falls from 0.194 to 0.0942.

Compared with AAAGGGAA, GGGGGAAA is lower in “PBM E-score” value: 0.00654 for the first, -0.024 for the second.

Going from CTAAATGC to CAAATACG, the “PBM E-score” value rises from -0.0088 to 0.0291.

First: CGGGGTTC
Second: CAGTATAC
The “PBM E-score” value of the first is lower: -0.0745 for the first, 0.133 for the second.

Compared with AACGAATG, GACTTGAA is lower in “PBM E-score” value: 0.208 for the first, -0.0464 for the second.

Going from CCCTGAAG to AGAAACCC, the “PBM E-score” value rises from -0.141 to -0.0814.

First: AGCAGCCA
Second: TAATGTAA
The “PBM E-score” value of the first is lower: -0.0645 for the first, 0.312 for the second.

First: TACCCGCA
Second: CAATGGAG
The “PBM E-score” value of the first is higher: 0.0998 for the first, -0.14 for the second.

Going from CAAGAAAA to AGTCACCG, the “PBM E-score” value falls from 0.195 to -0.052.

First: AAAGGGAT
Second: GCTTACAA
The “PBM E-score” value of the first is higher: 0.121 for the first, 0.0448 for the second.

Compared with AGCCTCGA, ACCCGCGG is lower in “PBM E-score” value: -0.0476 for the first, -0.0614 for the second.

First: CTCTCCTC
Second: CGTTCTAC
The “PBM E-score” value of the first is lower: -0.214 for the first, -0.0659 for the second.

First: AGAAAGCC
Second: GACATGGA
The “PBM E-score” value of the first is higher: 0.0871 for the first, 0.0543 for the second.

Going from CCTGGAGA to CCTCCTCC, the “PBM E-score” value falls from -0.0769 to -0.313.

Going from GATGTGAC to GATCGATC, the “PBM E-score” value rises from -0.116 to 0.0154.

Going from CACTCGAG to CGGTGGAC, the “PBM E-score” value falls from -0.0738 to -0.112.

Going from GCCAGCCA to ATGTACCA, the “PBM E-score” value rises from -0.116 to -0.0322.

First: CAACTACA
Second: CCCTGGGA
The “PBM E-score” value of the first is higher: 0.195 for the first, -0.32 for the second.

Compared with CCGCTACA, ATTACCAA is higher in “PBM E-score” value: -0.0599 for the first, 0.271 for the second.

Compared with AACATGCC, GCAAGTCC is lower in “PBM E-score” value: -0.132 for the first, -0.203 for the second.

Compared with CGAGCCGA, ATGACTCC is lower in “PBM E-score” value: -0.0279 for the first, -0.153 for the second.

Compared with CTTAGTGA, AGACCATA is higher in “PBM E-score” value: -0.16 for the first, 0.156 for the second.

Going from CTCGGGCA to AAGGGCCG, the “PBM E-score” value falls from 0.0125 to -0.304.

Compared with GGTACCCA, GGTAGGAA is higher in “PBM E-score” value: -0.221 for the first, 0.0894 for the second.

First: ATCAAAAT
Second: AACGTTCA
The “PBM E-score” value of the first is higher: 0.115 for the first, -0.0892 for the second.

Compared with TGCACGCA, CCAAGAAA is higher in “PBM E-score” value: -0.166 for the first, -0.00981 for the second.

First: AATACTAA
Second: AGGGCATC
The “PBM E-score” value of the first is higher: 0.174 for the first, -0.281 for the second.

First: CATGCGTA
Second: CGCTTAAG
The “PBM E-score” value of the first is higher: 0.142 for the first, -0.099 for the second.

First: ATCTGATC
Second: CCGTCGCC
The “PBM E-score” value of the first is lower: -0.0544 for the first, -0.0429 for the second.

Compared with GGTGAATA, AAACAGAC is higher in “PBM E-score” value: 0.132 for the first, 0.155 for the second.

Going from ACGGACTA to TAACCGAA, the “PBM E-score” value rises from -0.0366 to 0.0287.

Compared with CGCTGATC, GTGACCTA is lower in “PBM E-score” value: -0.0569 for the first, -0.219 for the second.
